Results are given in words; binding and its absence hold for the method and conditions named. In cells and extracts the contact can be indirect. Some binding calls cover weakened binding; strength is not graded here.
Biological target: Cas5-HA (C terminally HA-tagged Cas5) (C. albicans) (UniProt Q5AMH6)
Experiment: co-IP; Cas5-HA immunoprecipitated with anti-HA agarose (Pierce HA-Tag IP/Co-IP kit) from C. albicans lysate; lysis buffer 20 mM Tris pH 7.5, 100 mM KCl, 5 mM MgCl, 20% glycerol; western blot with anti-TAP antibody

Amino acid sequences for entries named in this document (tags omitted).
UniProt Q5AMH6: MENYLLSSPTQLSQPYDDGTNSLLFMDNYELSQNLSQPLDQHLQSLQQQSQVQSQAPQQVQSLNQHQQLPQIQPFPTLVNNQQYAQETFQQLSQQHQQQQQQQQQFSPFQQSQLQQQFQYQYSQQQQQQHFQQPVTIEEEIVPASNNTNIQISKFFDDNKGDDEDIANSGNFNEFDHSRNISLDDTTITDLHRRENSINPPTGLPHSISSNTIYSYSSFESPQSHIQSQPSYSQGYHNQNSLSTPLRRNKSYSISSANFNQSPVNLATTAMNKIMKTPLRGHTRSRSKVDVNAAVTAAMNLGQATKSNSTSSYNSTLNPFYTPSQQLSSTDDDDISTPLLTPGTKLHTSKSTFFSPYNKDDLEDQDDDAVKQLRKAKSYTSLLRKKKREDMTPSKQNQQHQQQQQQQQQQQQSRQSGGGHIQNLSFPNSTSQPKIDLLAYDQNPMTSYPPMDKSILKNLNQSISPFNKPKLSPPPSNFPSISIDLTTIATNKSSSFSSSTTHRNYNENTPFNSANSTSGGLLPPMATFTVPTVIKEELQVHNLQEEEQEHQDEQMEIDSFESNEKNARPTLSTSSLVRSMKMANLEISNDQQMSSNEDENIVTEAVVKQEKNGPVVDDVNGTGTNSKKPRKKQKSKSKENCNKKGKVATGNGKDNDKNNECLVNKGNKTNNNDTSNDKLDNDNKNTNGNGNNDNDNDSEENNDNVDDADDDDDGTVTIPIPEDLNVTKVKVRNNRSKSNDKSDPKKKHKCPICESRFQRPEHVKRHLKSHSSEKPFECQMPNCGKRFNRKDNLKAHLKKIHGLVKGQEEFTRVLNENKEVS
UniProt A0A1D8PCM9: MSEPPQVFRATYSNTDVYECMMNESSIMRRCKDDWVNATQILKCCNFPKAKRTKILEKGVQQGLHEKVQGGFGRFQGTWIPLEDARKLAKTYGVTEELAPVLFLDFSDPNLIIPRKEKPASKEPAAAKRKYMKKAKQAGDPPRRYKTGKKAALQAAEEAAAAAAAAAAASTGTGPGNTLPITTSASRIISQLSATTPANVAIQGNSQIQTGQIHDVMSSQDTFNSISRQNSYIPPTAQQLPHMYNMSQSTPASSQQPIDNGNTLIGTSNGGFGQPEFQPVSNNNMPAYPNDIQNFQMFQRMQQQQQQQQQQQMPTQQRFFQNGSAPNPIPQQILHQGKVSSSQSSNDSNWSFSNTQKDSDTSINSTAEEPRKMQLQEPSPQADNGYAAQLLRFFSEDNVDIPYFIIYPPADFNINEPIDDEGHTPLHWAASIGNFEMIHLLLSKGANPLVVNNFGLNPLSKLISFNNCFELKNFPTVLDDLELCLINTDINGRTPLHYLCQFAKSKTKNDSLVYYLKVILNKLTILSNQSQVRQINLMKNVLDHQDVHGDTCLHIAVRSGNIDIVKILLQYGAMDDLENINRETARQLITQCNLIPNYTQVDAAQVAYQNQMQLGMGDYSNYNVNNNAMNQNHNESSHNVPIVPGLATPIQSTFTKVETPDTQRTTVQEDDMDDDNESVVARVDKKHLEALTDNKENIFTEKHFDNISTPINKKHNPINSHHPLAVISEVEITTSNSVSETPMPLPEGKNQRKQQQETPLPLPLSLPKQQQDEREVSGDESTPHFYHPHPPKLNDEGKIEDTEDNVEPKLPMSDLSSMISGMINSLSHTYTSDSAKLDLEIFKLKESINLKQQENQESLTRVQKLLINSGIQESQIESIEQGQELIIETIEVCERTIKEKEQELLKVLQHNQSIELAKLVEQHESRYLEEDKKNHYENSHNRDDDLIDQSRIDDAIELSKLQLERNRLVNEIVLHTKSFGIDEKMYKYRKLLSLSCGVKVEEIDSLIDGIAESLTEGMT

Substance	binding
Swi6-TAP (from UniProt A0A1D8PED2 1-729)	binds
Swi4-TAP (from UniProt A0A1D8PCM9 1-1019)	binds
